The source of these data is article PMC4503993.

Sequences of proteins named here, by UniProt entry; tags and fusion partners are left off.
UniProt Q9JMB7: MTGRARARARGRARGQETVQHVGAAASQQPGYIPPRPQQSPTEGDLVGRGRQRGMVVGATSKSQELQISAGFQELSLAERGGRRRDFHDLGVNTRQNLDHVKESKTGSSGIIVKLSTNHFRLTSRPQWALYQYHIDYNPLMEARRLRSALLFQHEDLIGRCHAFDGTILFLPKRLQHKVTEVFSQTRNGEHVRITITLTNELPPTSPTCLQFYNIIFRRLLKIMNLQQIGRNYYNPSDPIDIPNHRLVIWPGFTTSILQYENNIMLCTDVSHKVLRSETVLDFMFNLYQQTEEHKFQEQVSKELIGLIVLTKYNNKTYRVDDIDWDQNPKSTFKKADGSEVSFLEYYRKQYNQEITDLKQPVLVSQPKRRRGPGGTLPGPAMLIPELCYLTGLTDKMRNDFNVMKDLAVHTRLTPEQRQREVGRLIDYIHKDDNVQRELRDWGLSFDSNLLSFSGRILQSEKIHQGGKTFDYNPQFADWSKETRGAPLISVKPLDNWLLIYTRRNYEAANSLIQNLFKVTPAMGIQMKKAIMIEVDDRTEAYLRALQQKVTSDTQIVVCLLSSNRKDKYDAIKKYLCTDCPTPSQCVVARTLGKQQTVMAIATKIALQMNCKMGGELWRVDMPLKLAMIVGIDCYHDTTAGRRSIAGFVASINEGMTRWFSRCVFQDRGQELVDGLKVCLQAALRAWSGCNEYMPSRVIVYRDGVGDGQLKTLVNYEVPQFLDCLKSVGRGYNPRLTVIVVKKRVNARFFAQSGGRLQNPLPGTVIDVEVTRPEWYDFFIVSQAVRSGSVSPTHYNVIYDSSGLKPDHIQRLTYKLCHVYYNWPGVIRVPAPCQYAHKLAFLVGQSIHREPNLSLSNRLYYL

For test [1], the target named is T1, FLAG-CaMKIV-FL (the full length of CaMKIV) (mouse) (UniProt P08414).
T1 sequence: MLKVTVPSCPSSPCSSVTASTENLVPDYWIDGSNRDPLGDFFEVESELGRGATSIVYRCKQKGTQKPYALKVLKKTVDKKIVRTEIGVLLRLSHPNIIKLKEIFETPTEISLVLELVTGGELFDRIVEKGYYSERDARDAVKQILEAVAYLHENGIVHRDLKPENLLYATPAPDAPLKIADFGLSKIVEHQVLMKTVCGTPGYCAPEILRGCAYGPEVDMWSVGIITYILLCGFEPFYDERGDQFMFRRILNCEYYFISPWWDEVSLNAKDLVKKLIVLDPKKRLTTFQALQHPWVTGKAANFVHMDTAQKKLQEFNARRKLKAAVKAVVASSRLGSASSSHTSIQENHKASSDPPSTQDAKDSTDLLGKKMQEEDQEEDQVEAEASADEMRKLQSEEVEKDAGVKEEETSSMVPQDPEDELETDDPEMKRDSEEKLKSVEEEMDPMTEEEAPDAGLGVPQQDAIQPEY
Put plainly: co-IP; HEK293T cells co-transfected with FLAG- and GFP-tagged constructs; lysates in TNE buffer (10 mM Tris-HCl pH 7.5, 150 mM NaCl, 1 mM EDTA, 1% Nonidet P-40); precipitated with anti-FLAG or anti-GFP antibody overnight at 4 °C; in Fig. 6 with or without co-expressed CaMKIV-CA.

For test [2], the target named is T2, GST-KIF17b-TC2 (the 991-1038 amino acids of KIF17b) (mouse) (UniProt Q99PW8).
T2 sequence: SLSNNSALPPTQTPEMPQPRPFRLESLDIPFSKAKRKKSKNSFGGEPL
Put plainly: pull-down; purified GST-fusions of KIF17b truncations bound to glutathione-Sepharose beads, incubated with lysates of HEK293T cells transfected with GFP-MVH or GFP-MIWI; blotted with anti-GFP antibody; in Fig. 4C precipitates treated with RNase A at 37 °C for 1 min; only the target purified.

Test [3] deals with MIWI (endogenous, mouse testes) (mouse (endogenous in testes)) (UniProt Q9JMB7). Kind of test: co-IP; mouse testes lysate in TNE buffer precipitated with anti-MIWI antibody, blotted with anti-CaMKIV antibody; anti-GFP antibody as negative control.
Test [4] addresses T3, FLAG-KIF17b-FL (the full length of KIF17b) (mouse) (UniProt Q99PW8).
T3 sequence: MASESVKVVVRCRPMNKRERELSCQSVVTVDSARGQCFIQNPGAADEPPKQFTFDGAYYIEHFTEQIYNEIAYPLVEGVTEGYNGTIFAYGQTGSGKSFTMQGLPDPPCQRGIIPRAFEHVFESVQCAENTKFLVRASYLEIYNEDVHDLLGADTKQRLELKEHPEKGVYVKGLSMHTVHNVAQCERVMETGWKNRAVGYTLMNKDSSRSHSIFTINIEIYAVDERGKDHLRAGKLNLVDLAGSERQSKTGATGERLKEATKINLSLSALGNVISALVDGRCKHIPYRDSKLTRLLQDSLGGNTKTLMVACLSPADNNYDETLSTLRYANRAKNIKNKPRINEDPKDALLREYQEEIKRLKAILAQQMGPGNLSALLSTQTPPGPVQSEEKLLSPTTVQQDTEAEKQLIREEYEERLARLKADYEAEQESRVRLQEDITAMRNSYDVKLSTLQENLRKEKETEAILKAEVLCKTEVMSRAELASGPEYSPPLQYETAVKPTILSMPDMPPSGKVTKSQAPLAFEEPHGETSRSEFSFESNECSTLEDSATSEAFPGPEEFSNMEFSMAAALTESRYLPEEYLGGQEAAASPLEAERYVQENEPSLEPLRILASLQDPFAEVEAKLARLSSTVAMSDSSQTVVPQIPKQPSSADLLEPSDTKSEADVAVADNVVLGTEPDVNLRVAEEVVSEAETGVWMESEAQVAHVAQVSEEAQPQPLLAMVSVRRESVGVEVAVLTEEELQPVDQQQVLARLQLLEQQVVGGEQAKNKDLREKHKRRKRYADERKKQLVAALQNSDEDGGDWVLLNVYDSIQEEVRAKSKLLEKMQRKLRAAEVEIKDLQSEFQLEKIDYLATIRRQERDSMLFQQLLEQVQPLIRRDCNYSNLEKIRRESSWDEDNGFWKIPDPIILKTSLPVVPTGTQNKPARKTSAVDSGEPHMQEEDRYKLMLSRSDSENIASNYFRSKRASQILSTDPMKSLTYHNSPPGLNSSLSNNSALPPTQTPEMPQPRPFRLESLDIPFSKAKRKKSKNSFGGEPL
Put plainly: co-IP; HEK293T cells co-transfected with FLAG- and GFP-tagged constructs; lysates in TNE buffer (10 mM Tris-HCl pH 7.5, 150 mM NaCl, 1 mM EDTA, 1% Nonidet P-40); precipitated with anti-FLAG or anti-GFP antibody overnight at 4 °C; in Fig. 6 with or without co-expressed CaMKIV-CA.

Test [5] has as its target GFP-MIWI (mouse homologue of PIWI, PIWIL1) (mouse) (UniProt Q9JMB7). The description is as above.
Test [6] addresses T4, GFP-MVH (mouse VASA homologue) (mouse) (UniProt Q61496).
T4 sequence: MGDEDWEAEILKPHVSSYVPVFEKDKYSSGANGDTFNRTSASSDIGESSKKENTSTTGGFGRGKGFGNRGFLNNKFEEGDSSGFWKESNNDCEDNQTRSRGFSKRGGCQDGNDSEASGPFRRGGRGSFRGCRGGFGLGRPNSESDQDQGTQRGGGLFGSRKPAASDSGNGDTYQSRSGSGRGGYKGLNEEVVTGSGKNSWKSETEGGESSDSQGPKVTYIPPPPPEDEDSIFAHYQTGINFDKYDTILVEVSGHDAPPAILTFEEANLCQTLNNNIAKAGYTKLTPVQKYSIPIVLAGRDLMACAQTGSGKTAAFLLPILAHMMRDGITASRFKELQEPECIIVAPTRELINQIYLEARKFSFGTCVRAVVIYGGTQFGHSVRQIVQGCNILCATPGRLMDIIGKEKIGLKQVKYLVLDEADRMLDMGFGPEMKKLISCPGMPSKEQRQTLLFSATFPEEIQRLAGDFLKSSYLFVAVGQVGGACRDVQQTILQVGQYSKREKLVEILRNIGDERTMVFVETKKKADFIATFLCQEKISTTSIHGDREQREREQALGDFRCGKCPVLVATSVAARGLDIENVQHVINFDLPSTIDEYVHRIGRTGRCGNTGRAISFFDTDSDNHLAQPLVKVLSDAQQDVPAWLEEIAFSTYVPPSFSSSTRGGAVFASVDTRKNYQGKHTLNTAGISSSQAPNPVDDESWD
The test is described as above.

These are yes or no findings as the source states them, for the method shown. Binding seen in cells or lysates may run through a third protein. Some binding calls cover weakened binding; strength is not graded here. For some assays here: Sequences can lack the tags named with a protein.

As to “GFP-MIWI (mouse homologue of PIWI, PIWIL1) (from UniProt Q9JMB7 1-862)”, the binding result in test [1] and in test [2] was “binds” throughout.

B1: GFP-MVH (mouse VASA homologue) (protein, UniProt Q61496 1-702)
chain: MGDEDWEAEILKPHVSSYVPVFEKDKYSSGANGDTFNRTSASSDIGESSKKENTSTTGGFGRGKGFGNRGFLNNKFEEGDSSGFWKESNNDCEDNQTRSRGFSKRGGCQDGNDSEASGPFRRGGRGSFRGCRGGFGLGRPNSESDQDQGTQRGGGLFGSRKPAASDSGNGDTYQSRSGSGRGGYKGLNEEVVTGSGKNSWKSETEGGESSDSQGPKVTYIPPPPPEDEDSIFAHYQTGINFDKYDTILVEVSGHDAPPAILTFEEANLCQTLNNNIAKAGYTKLTPVQKYSIPIVLAGRDLMACAQTGSGKTAAFLLPILAHMMRDGITASRFKELQEPECIIVAPTRELINQIYLEARKFSFGTCVRAVVIYGGTQFGHSVRQIVQGCNILCATPGRLMDIIGKEKIGLKQVKYLVLDEADRMLDMGFGPEMKKLISCPGMPSKEQRQTLLFSATFPEEIQRLAGDFLKSSYLFVAVGQVGGACRDVQQTILQVGQYSKREKLVEILRNIGDERTMVFVETKKKADFIATFLCQEKISTTSIHGDREQREREQALGDFRCGKCPVLVATSVAARGLDIENVQHVINFDLPSTIDEYVHRIGRTGRCGNTGRAISFFDTDSDNHLAQPLVKVLSDAQQDVPAWLEEIAFSTYVPPSFSSSTRGGAVFASVDTRKNYQGKHTLNTAGISSSQAPNPVDDESWD
Consider B1, for which the binding result in test [1] and in test [2] was “binds” in each case.

B2: CaMKIV (endogenous, mouse testes) (enzyme, UniProt P08414 1-469)
chain: MLKVTVPSCPSSPCSSVTASTENLVPDYWIDGSNRDPLGDFFEVESELGRGATSIVYRCKQKGTQKPYALKVLKKTVDKKIVRTEIGVLLRLSHPNIIKLKEIFETPTEISLVLELVTGGELFDRIVEKGYYSERDARDAVKQILEAVAYLHENGIVHRDLKPENLLYATPAPDAPLKIADFGLSKIVEHQVLMKTVCGTPGYCAPEILRGCAYGPEVDMWSVGIITYILLCGFEPFYDERGDQFMFRRILNCEYYFISPWWDEVSLNAKDLVKKLIVLDPKKRLTTFQALQHPWVTGKAANFVHMDTAQKKLQEFNARRKLKAAVKAVVASSRLGSASSSHTSIQENHKASSDPPSTQDAKDSTDLLGKKMQEEDQEEDQVEAEASADEMRKLQSEEVEKDAGVKEEETSSMVPQDPEDELETDDPEMKRDSEEKLKSVEEEMDPMTEEEAPDAGLGVPQQDAIQPEY
On to B2, for which the binding entry in test [3] was “binds”.

B3: GFP-CaMKIV-FL (enzyme, UniProt P08414 1-469)
chain: MLKVTVPSCPSSPCSSVTASTENLVPDYWIDGSNRDPLGDFFEVESELGRGATSIVYRCKQKGTQKPYALKVLKKTVDKKIVRTEIGVLLRLSHPNIIKLKEIFETPTEISLVLELVTGGELFDRIVEKGYYSERDARDAVKQILEAVAYLHENGIVHRDLKPENLLYATPAPDAPLKIADFGLSKIVEHQVLMKTVCGTPGYCAPEILRGCAYGPEVDMWSVGIITYILLCGFEPFYDERGDQFMFRRILNCEYYFISPWWDEVSLNAKDLVKKLIVLDPKKRLTTFQALQHPWVTGKAANFVHMDTAQKKLQEFNARRKLKAAVKAVVASSRLGSASSSHTSIQENHKASSDPPSTQDAKDSTDLLGKKMQEEDQEEDQVEAEASADEMRKLQSEEVEKDAGVKEEETSSMVPQDPEDELETDDPEMKRDSEEKLKSVEEEMDPMTEEEAPDAGLGVPQQDAIQPEY
For the molecule B3, the binding result in test [4] was “binds”.

B4: FLAG-KIF17b-FL (the full length of KIF17b) (protein, UniProt Q99PW8 1-1038)
chain: MASESVKVVVRCRPMNKRERELSCQSVVTVDSARGQCFIQNPGAADEPPKQFTFDGAYYIEHFTEQIYNEIAYPLVEGVTEGYNGTIFAYGQTGSGKSFTMQGLPDPPCQRGIIPRAFEHVFESVQCAENTKFLVRASYLEIYNEDVHDLLGADTKQRLELKEHPEKGVYVKGLSMHTVHNVAQCERVMETGWKNRAVGYTLMNKDSSRSHSIFTINIEIYAVDERGKDHLRAGKLNLVDLAGSERQSKTGATGERLKEATKINLSLSALGNVISALVDGRCKHIPYRDSKLTRLLQDSLGGNTKTLMVACLSPADNNYDETLSTLRYANRAKNIKNKPRINEDPKDALLREYQEEIKRLKAILAQQMGPGNLSALLSTQTPPGPVQSEEKLLSPTTVQQDTEAEKQLIREEYEERLARLKADYEAEQESRVRLQEDITAMRNSYDVKLSTLQENLRKEKETEAILKAEVLCKTEVMSRAELASGPEYSPPLQYETAVKPTILSMPDMPPSGKVTKSQAPLAFEEPHGETSRSEFSFESNECSTLEDSATSEAFPGPEEFSNMEFSMAAALTESRYLPEEYLGGQEAAASPLEAERYVQENEPSLEPLRILASLQDPFAEVEAKLARLSSTVAMSDSSQTVVPQIPKQPSSADLLEPSDTKSEADVAVADNVVLGTEPDVNLRVAEEVVSEAETGVWMESEAQVAHVAQVSEEAQPQPLLAMVSVRRESVGVEVAVLTEEELQPVDQQQVLARLQLLEQQVVGGEQAKNKDLREKHKRRKRYADERKKQLVAALQNSDEDGGDWVLLNVYDSIQEEVRAKSKLLEKMQRKLRAAEVEIKDLQSEFQLEKIDYLATIRRQERDSMLFQQLLEQVQPLIRRDCNYSNLEKIRRESSWDEDNGFWKIPDPIILKTSLPVVPTGTQNKPARKTSAVDSGEPHMQEEDRYKLMLSRSDSENIASNYFRSKRASQILSTDPMKSLTYHNSPPGLNSSLSNNSALPPTQTPEMPQPRPFRLESLDIPFSKAKRKKSKNSFGGEPL
Consider B4, for which the binding entry in test [5] and in test [6] was “binds” throughout.
